What all share (test): co-IP; soluble proteins from developing rice seeds (wild types Nip, Kin, Akt; mutant lines ss1, EM10 and #1411) extracted in 10 mM Hepes-KOH pH 7.5, 100 mM NaCl, protease inhibitor; incubated with isozyme-specific antibodies and protein A sepharose; extensive washing; captured proteins detected by western blotting; control with pre-immune sera
Assay [1] deals with T1, starch branching enzyme I (rice, japonica (endogenous in developing seeds)) (UniProt Q01401).
T1 sequence: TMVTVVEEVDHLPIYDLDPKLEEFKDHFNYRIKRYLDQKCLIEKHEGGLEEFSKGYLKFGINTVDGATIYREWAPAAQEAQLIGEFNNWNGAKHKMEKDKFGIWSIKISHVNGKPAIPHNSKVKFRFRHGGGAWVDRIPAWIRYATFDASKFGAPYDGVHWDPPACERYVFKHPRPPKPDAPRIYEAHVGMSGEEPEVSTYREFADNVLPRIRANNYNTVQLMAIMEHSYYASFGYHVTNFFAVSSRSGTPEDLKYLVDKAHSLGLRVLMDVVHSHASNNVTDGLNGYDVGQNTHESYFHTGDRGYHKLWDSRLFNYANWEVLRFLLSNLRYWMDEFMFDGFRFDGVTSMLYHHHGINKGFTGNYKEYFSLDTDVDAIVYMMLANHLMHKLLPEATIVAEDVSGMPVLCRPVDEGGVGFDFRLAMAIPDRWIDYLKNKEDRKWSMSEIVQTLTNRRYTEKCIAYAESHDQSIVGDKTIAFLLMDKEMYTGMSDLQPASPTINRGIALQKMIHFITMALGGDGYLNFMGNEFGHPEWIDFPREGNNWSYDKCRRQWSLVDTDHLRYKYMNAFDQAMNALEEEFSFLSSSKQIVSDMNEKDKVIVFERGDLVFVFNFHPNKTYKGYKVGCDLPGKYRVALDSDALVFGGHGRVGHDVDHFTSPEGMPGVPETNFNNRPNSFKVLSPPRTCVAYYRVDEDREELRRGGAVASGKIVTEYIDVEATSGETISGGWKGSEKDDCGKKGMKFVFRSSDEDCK

Assay [2] addresses T2, starch synthase IIa (rice, japonica (endogenous in developing seeds)) (UniProt Q0DDE3).
T2 sequence: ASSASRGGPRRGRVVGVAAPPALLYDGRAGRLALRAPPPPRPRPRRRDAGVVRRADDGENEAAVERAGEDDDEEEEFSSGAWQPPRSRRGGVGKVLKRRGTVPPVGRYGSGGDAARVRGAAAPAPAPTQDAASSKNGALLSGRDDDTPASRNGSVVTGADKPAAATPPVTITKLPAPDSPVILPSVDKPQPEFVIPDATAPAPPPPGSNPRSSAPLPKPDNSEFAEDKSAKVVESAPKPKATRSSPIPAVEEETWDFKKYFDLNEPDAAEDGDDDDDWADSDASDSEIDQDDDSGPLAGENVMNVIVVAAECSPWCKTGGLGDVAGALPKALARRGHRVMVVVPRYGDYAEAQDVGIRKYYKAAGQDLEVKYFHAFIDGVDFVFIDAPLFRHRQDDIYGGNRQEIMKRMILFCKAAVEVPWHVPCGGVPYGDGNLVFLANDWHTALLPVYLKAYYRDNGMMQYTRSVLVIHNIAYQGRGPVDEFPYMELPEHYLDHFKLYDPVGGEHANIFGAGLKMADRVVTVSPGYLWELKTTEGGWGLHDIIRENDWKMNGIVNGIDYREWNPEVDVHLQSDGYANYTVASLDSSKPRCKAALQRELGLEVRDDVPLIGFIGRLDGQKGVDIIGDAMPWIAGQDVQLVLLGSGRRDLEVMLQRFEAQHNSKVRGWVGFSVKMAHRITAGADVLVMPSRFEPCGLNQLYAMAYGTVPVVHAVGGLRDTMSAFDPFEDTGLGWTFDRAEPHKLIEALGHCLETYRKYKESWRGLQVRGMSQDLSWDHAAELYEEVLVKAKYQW

Assay [3] concerns the target T3, starch synthase I (rice, japonica (endogenous in developing seeds)) (UniProt Q0DEC8).
T3 sequence: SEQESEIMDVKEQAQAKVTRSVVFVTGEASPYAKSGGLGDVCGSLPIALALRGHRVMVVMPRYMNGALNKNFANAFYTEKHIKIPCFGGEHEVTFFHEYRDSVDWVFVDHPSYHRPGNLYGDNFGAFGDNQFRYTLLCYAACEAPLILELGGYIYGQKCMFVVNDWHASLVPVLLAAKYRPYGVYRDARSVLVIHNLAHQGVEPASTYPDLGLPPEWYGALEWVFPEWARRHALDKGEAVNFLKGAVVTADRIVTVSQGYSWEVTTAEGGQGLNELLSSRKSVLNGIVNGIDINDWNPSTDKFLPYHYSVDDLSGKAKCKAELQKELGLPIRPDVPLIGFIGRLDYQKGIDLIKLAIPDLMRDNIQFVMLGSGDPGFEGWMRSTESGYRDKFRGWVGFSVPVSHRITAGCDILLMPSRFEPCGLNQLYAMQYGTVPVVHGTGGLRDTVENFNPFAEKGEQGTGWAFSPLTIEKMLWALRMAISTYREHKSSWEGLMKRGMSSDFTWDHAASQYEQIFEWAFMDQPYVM

The target of assay [4] is starch branching enzyme IIb (rice, japonica (endogenous in developing seeds)).
Assay [5] has as its target starch branching enzyme IIa (rice, japonica (endogenous in developing seeds)).
Assay [6] addresses inactive BEIIb protein that harbors Gly645Arg substitution (rice, japonica (endogenous in developing seeds)).

These are yes or no findings as the source states them, for the method shown. In cells and extracts the contact can be indirect. Binding can be weak; no strength is given.

Regarding “inactive BEIIb protein that harbors Gly645Arg substitution (enzyme)”, the binding entry in assay [1], in assay [2] and in assay [3] was “binds” throughout.

Turning to starch branching enzyme IIb, the binding entry in assay [1], in assay [2] and in assay [3] was “binds” in each case.

B1: starch synthase IIa (enzyme, UniProt Q0DDE3 17-810)
chain: ASSASRGGPRRGRVVGVAAPPALLYDGRAGRLALRAPPPPRPRPRRRDAGVVRRADDGENEAAVERAGEDDDEEEEFSSGAWQPPRSRRGGVGKVLKRRGTVPPVGRYGSGGDAARVRGAAAPAPAPTQDAASSKNGALLSGRDDDTPASRNGSVVTGADKPAAATPPVTITKLPAPDSPVILPSVDKPQPEFVIPDATAPAPPPPGSNPRSSAPLPKPDNSEFAEDKSAKVVESAPKPKATRSSPIPAVEEETWDFKKYFDLNEPDAAEDGDDDDDWADSDASDSEIDQDDDSGPLAGENVMNVIVVAAECSPWCKTGGLGDVAGALPKALARRGHRVMVVVPRYGDYAEAQDVGIRKYYKAAGQDLEVKYFHAFIDGVDFVFIDAPLFRHRQDDIYGGNRQEIMKRMILFCKAAVEVPWHVPCGGVPYGDGNLVFLANDWHTALLPVYLKAYYRDNGMMQYTRSVLVIHNIAYQGRGPVDEFPYMELPEHYLDHFKLYDPVGGEHANIFGAGLKMADRVVTVSPGYLWELKTTEGGWGLHDIIRENDWKMNGIVNGIDYREWNPEVDVHLQSDGYANYTVASLDSSKPRCKAALQRELGLEVRDDVPLIGFIGRLDGQKGVDIIGDAMPWIAGQDVQLVLLGSGRRDLEVMLQRFEAQHNSKVRGWVGFSVKMAHRITAGADVLVMPSRFEPCGLNQLYAMAYGTVPVVHAVGGLRDTMSAFDPFEDTGLGWTFDRAEPHKLIEALGHCLETYRKYKESWRGLQVRGMSQDLSWDHAAELYEEVLVKAKYQW
As for B1, the binding entry in assay [4], in assay [5] and in assay [6] was “binds” throughout.

B2: starch branching enzyme I (enzyme, UniProt Q01401 65-820)
chain: TMVTVVEEVDHLPIYDLDPKLEEFKDHFNYRIKRYLDQKCLIEKHEGGLEEFSKGYLKFGINTVDGATIYREWAPAAQEAQLIGEFNNWNGAKHKMEKDKFGIWSIKISHVNGKPAIPHNSKVKFRFRHGGGAWVDRIPAWIRYATFDASKFGAPYDGVHWDPPACERYVFKHPRPPKPDAPRIYEAHVGMSGEEPEVSTYREFADNVLPRIRANNYNTVQLMAIMEHSYYASFGYHVTNFFAVSSRSGTPEDLKYLVDKAHSLGLRVLMDVVHSHASNNVTDGLNGYDVGQNTHESYFHTGDRGYHKLWDSRLFNYANWEVLRFLLSNLRYWMDEFMFDGFRFDGVTSMLYHHHGINKGFTGNYKEYFSLDTDVDAIVYMMLANHLMHKLLPEATIVAEDVSGMPVLCRPVDEGGVGFDFRLAMAIPDRWIDYLKNKEDRKWSMSEIVQTLTNRRYTEKCIAYAESHDQSIVGDKTIAFLLMDKEMYTGMSDLQPASPTINRGIALQKMIHFITMALGGDGYLNFMGNEFGHPEWIDFPREGNNWSYDKCRRQWSLVDTDHLRYKYMNAFDQAMNALEEEFSFLSSSKQIVSDMNEKDKVIVFERGDLVFVFNFHPNKTYKGYKVGCDLPGKYRVALDSDALVFGGHGRVGHDVDHFTSPEGMPGVPETNFNNRPNSFKVLSPPRTCVAYYRVDEDREELRRGGAVASGKIVTEYIDVEATSGETISGGWKGSEKDDCGKKGMKFVFRSSDEDCK
Consider B2, for which the binding result in assay [4], in assay [5] and in assay [6] was “binds” each time.

B3: starch synthase I (enzyme, UniProt Q0DEC8 114-641)
chain: SEQESEIMDVKEQAQAKVTRSVVFVTGEASPYAKSGGLGDVCGSLPIALALRGHRVMVVMPRYMNGALNKNFANAFYTEKHIKIPCFGGEHEVTFFHEYRDSVDWVFVDHPSYHRPGNLYGDNFGAFGDNQFRYTLLCYAACEAPLILELGGYIYGQKCMFVVNDWHASLVPVLLAAKYRPYGVYRDARSVLVIHNLAHQGVEPASTYPDLGLPPEWYGALEWVFPEWARRHALDKGEAVNFLKGAVVTADRIVTVSQGYSWEVTTAEGGQGLNELLSSRKSVLNGIVNGIDINDWNPSTDKFLPYHYSVDDLSGKAKCKAELQKELGLPIRPDVPLIGFIGRLDYQKGIDLIKLAIPDLMRDNIQFVMLGSGDPGFEGWMRSTESGYRDKFRGWVGFSVPVSHRITAGCDILLMPSRFEPCGLNQLYAMQYGTVPVVHGTGGLRDTVENFNPFAEKGEQGTGWAFSPLTIEKMLWALRMAISTYREHKSSWEGLMKRGMSSDFTWDHAASQYEQIFEWAFMDQPYVM
Take B3: the binding entry in assay [4] and in assay [6] was “binds” throughout.

For the origin of these results see PMC6292963.
